Results are given in words; binding and its absence hold for the method and conditions named. In cells and extracts the contact can be indirect. Some entries that bind do so weakly or less than the wild type.
Tests used:
[1] = biological target: EphA2 (as in the co-immunoprecipitation with RhoG) (UniProt P29317); experiment: co-IP; RhoG with EphA2, with or without HGF; bait and constructs not stated (Supplementary Fig. 4a)
EphA2-GFP (wild type) = EphA2-GFP (wild type) (UniProt P29317); experiment: co-IP; EphA2-GFPs immunoprecipitated with mouse anti-GFP on anti-mouse IgG Dynabeads; cells with or without HGF for 5 min; lysis in 200 mM NaCl, 75 mM Tris-HCl pH 7, 0.15% Tween-20; 2 h at 4 °C; importins by western blotting

Amino acid sequences for entries named in this document (tags omitted). Residues count along the entry.
UniProt P29317, residues 24-976: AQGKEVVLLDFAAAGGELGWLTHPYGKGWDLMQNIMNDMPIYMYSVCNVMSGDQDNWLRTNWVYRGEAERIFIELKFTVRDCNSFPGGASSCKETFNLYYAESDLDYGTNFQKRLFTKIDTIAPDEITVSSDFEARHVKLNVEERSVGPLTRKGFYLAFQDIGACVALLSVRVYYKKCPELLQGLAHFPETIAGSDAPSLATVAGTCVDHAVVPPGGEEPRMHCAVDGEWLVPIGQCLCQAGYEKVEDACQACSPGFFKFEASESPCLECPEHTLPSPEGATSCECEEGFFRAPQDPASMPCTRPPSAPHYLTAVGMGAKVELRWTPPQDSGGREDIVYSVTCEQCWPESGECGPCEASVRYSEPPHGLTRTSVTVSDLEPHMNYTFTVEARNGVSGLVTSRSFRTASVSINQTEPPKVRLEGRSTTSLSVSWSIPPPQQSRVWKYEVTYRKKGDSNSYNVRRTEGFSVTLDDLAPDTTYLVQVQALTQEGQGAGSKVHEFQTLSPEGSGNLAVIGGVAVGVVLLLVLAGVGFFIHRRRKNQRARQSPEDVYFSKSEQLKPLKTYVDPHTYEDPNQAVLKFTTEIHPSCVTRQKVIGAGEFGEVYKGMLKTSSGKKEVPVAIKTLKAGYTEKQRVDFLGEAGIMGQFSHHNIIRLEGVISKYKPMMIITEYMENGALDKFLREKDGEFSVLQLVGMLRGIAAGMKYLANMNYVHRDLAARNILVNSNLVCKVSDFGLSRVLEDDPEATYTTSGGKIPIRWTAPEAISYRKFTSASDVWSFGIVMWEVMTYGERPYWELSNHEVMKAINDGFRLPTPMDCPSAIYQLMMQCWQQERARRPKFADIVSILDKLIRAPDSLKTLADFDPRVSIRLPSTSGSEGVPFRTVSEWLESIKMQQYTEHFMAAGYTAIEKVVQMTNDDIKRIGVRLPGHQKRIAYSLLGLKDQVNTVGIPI
UniProt P84095: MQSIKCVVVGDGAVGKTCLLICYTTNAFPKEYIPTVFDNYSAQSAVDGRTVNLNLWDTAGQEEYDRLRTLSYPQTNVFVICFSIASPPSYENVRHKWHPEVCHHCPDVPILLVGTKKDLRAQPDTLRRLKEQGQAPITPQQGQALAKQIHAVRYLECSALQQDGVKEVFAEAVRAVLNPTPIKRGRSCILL
UniProt P52294: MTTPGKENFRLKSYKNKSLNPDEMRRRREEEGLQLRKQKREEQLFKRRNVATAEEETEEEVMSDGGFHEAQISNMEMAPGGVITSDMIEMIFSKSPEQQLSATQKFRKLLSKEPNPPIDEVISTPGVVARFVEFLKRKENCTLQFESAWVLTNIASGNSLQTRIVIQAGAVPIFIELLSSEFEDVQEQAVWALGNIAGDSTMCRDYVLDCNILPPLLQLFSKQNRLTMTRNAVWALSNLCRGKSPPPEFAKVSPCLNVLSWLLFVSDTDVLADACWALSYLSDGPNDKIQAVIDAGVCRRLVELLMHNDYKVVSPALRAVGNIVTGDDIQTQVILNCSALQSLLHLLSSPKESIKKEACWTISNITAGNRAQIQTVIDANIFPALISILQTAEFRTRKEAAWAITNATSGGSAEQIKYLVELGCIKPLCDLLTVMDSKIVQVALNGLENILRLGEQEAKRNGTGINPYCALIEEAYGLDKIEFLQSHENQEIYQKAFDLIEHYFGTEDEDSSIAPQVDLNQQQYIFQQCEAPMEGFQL
UniProt Q14974: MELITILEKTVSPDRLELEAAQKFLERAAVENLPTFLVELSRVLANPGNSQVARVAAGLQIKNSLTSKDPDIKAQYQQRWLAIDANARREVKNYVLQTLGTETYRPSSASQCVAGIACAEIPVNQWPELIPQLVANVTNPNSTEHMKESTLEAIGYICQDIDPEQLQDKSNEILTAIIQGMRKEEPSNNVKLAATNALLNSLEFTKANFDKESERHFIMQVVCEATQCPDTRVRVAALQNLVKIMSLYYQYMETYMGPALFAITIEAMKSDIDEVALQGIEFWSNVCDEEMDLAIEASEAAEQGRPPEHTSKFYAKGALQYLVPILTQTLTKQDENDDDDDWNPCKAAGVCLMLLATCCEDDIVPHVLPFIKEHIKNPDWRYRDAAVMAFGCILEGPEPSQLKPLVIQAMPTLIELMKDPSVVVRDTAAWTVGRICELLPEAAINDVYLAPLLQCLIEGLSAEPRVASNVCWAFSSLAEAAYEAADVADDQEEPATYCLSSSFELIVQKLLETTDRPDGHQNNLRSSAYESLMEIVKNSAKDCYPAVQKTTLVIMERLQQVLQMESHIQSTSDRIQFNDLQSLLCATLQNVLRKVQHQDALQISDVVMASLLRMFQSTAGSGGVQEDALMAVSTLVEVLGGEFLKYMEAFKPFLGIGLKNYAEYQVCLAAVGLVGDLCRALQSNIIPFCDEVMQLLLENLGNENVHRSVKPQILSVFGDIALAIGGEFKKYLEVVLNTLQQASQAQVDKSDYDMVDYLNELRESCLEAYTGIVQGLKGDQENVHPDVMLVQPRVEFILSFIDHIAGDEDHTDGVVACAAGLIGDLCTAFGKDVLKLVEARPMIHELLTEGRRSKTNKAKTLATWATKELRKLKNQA

RhoG (from UniProt P84095 1-191)
binding [1]: binds

importin-α5 (from UniProt P52294 1-538)
binding (EphA2-GFP (wild type)): binds

importin-α7 (from UniProt O60684 1-536)
binding (EphA2-GFP (wild type)): binds

importin-β1 (from UniProt Q14974 1-876)
binding (EphA2-GFP (wild type)): binds

B1: transportin-3 (protein, UniProt Q9Y5L0 1-923)
chain: MEGAKPTLQLVYQAVQALYHDPDPSGKERASFWLGELQRSVHAWEISDQLLQIRQDVESCYFAAQTMKMKIQTSFYELPTDSHASLRDSLLTHIQNLKDLSPVIVTQLALAIADLALQMPSWKGCVQTLVEKYSNDVTSLPFLLEILTVLPEEVHSRSLRIGANRRTEIIEDLAFYSSTVVSLLMTCVEKAGTDEKMLMKVFRCLGSWFNLGVLDSNFMANNKLLALLFEVLQQDKTSSNLHEAASDCVCSALYAIENVETNLPLAMQLFQGVLTLETAYHMAVAREDLDKVLNYCRIFTELCETFLEKIVCTPGQGLGDLRTLELLLICAGHPQYEVVEISFNFWYRLGEHLYKTNDEVIHGIFKAYIQRLLHALARHCQLEPDHEGVPEETDDFGEFRMRVSDLVKDLIFLIGSMECFAQLYSTLKEGNPPWEVTEAVLFIMAAIAKSVDPENNPTLVEVLEGVVRLPETVHTAVRYTSIELVGEMSEVVDRNPQFLDPVLGYLMKGLCEKPLASAAAKAIHNICSVCRDHMAQHFNGLLEIARSLDSFLLSPEAAVGLLKGTALVLARLPLDKITECLSELCSVQVMALKKLLSQEPSNGISSDPTVFLDRLAVIFRHTNPIVENGQTHPCQKVIQEIWPVLSETLNKHRADNRIVERCCRCLRFAVRCVGKGSAALLQPLVTQMVNVYHVHQHSCFLYLGSILVDEYGMEEGCRQGLLDMLQALCIPTFQLLEQQNGLQNHPDTVDDLFRLATRFIQRSPVTLLRSQVVIPILQWAIASTTLDHRDANCSVMRFLRDLIHTGVANDHEEDFELRKELIGQVMNQLGQQLVSQLLHTCCFCLPPYTLPDVAEVLWEIMQVDRPTFCRWLENSLKGLPKETTVGAVTVTHKQLTDFHKQVTSAEECKQVCWALRDFTRLFR
binding (EphA2-GFP (wild type)): binds

Source: publication PMC8613289
